Assay results reported in patent US20240124590A1.
These are yes or no findings as the source states them, for the method shown. Some entries that bind do so weakly or less than the wild type.

Target: cynomolgus monkey PD1 human Fc tagged recombinant protein (cynomolgus monkey)
Assay: direct ELISA, Fab on coated PD1-Fc

binding: binds
B1: Fab-Mab005 (Fab, V domains shown)
VH: EVQLVESGGGLVQPGGSLRLSCAASGFTFSSYMMSWVRQAPGKGLEWVATISGGGANTYYPDSVKGRFTISRDNAKNSLYLQMNSLRAEDTAVYYCARQLYYFDYWGQGTTVTVSS
VL: DIQMTQSPSSLSASVGDRVTITCLASQTIGTWLTWYQQKPGKAPKLLIYTATSLADGVPSRFSGSGSGTDFTLTISSLQPEDFATYYCQQVYSIPWTFGGGTKVEIK
